{
  "source": "the supplement of paper PMC9135407",
  "tested_on": "primary human hepatic stellate cells (donor 1)",
  "assay": "percent Bodipy-positive cells; higher = more lipid droplet accumulation",
  "settings": "48 h",
  "experimental": "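Primary lipid accumulation screen in primary human hepatic stellate cell myofibroblasts (donor 1, passage 8) in 384-well plates. 100 nL of library compound was pin-transferred into 30 µL medium in duplicate, and cells were treated for 48 h. The 'Scaled' score combines distance from plate baseline, toxicity and reproducibility penalties, and is normalised to nortriptyline (positive) and DMSO (negative) controls on each plate. A hit is defined as scaled >0.85 or among the top 3 wells per plate.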",
  "key": {"[1]": {"settings": "library stock concentration: 400 uM"}, "[2]": {"settings": "library stock concentration: 10 mM"}, "[3]": {"settings": "library stock concentration: 3.33 mM"}, "[4]": {"settings": "library stock concentration: 2 mM"}, "[5]": {"settings": "library stock concentration: 1 mM"}},
  "note": "Several values for one entry are separate records, joined by “and”; a condition that tells them apart may be missing. Equal values may be shown once. Where a name gives a salt, the structure may show the parent alone. ± gives the standard deviation of the averaged measurements. The list shows a part of the results. Part of the spread comes from offsets between plates or batches.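 Culture-activated primary human stellate myofibroblasts, where regained lipid droplets signal inactivation. Value: share of Hoechst-counted cells above a per-plate Bodipy cutoff, in duplicate wells, with DMSO negative and nortriptyline positive controls on each plate. Hits: a control-normalized score above the plate's top-tenth-percentile nortriptyline wells, or one of a plate's three best wells. Final well concentrations are not given.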",
  "data": [
    {"smiles": "CCN(CC)CCNC(=O)c1c(C)[nH]c(/C=C2\\C(=O)Nc3ccc(F)cc32)c1C", "values": [
      {"measurement": "percent Bodipy-positive cells", "setting": "[1]", "value": "44.7 ± 15", "unit": "%"},
      {"measurement": "percent Bodipy-positive cells", "setting": "[2]", "value": 100, "unit": "%"}
    ]},
    {"smiles": "CCN(CC)CCNC(=O)c1c(C)[nH]c(/C=C2\\C(=O)Nc3ccc(F)cc32)c1C", "note": "[Sunitinib Malate]", "values": [
      {"measurement": "percent Bodipy-positive cells", "setting": "[3]", "value": 100, "unit": "%"},
      {"measurement": "percent Bodipy-positive cells", "setting": "[2]", "value": "98.8 ± 1.8", "unit": "%"}
    ]},
    {"smiles": "COc1cc(C(=O)NC2CCN(C)CC2)ccc1Nc1ncc2c(n1)N(C1CCCC1)CCC(=O)N2C(C)C", "values": [
      {"measurement": "percent Bodipy-positive cells", "setting": "library stock concentration: 80 uM", "value": "10.8 ± 3.6", "unit": "%"},
      {"measurement": "percent Bodipy-positive cells", "setting": "[1]", "value": "22.5 ± 3", "unit": "%"},
      {"measurement": "percent Bodipy-positive cells", "setting": "[4]", "value": "35.6 ± 6.2", "unit": "%"}
    ]},
    {"smiles": "CCCCC[C@H](O)/C=C/[C@H]1[C@H](O)CC(=O)[C@@H]1CCCCCCC(=O)NCCO", "note": "[Prostaglandin E1 Ethanolamide]", "values": [
      {"measurement": "percent Bodipy-positive cells", "setting": "[5]", "value": "14 ± 2.6", "unit": "%"}
    ]},
    {"smiles": "COc1cc(C[C@@H](CO)[C@H](CO)Cc2ccc(O)c(OC)c2)ccc1O", "values": [
      {"measurement": "percent Bodipy-positive cells", "setting": "[2]", "value": "13.2 ± 3.1", "unit": "%"}
    ]},
    {"smiles": "CN(C)C(=O)C(CCN1CCC(O)(c2ccc(Cl)cc2)CC1)(c1ccccc1)c1ccccc1", "note": "[Loperamide hydrochloride]", "values": [
      {"measurement": "percent Bodipy-positive cells", "value": "64.1 ± 2.6", "unit": "%"},
      {"measurement": "percent Bodipy-positive cells", "setting": "[2]", "value": "99.4% and 80.8%"}
    ]},
    {"smiles": "CN(C)C(=O)C(CCN1CCC(O)(c2ccc(Cl)cc2)CC1)(c1ccccc1)c1ccccc1", "note": "[Loperamide HCl]", "values": [
      {"measurement": "percent Bodipy-positive cells", "setting": "[3]", "value": "43.6 ± 3", "unit": "%"},
      {"measurement": "percent Bodipy-positive cells", "setting": "[2]", "value": "98.55 ± 0.61", "unit": "%"}
    ]},
    {"smiles": "Cc1ccccc1C(=O)Nc1ccc(C(=O)N2CCCC(O)c3cc(Cl)ccc32)c(C)c1", "note": "(stereo unspecified) [Tolvaptan]", "values": [
      {"measurement": "percent Bodipy-positive cells", "setting": "[3]", "value": "8.34 ± 5.3", "unit": "%"},
      {"measurement": "percent Bodipy-positive cells", "setting": "[2]", "value": "10.7 ± 0.95", "unit": "%"}
    ]},
    {"smiles": "COc1ccccc1N1CCN(CCN2C(=O)c3ccccc3C(C)(C)C2=O)CC1", "note": "[ARC 239 dihydrochloride]", "values": [
      {"measurement": "percent Bodipy-positive cells", "setting": "[2]", "value": "12.253 ± 0.012", "unit": "%"}
    ]},
    {"smiles": "Clc1ccc(C2(c3ccc(-c4cn[nH]c4)cc3)CCNCC2)cc1", "values": [
      {"measurement": "percent Bodipy-positive cells", "setting": "[4]", "value": "85.4 ± 4.4", "unit": "%"},
      {"measurement": "percent Bodipy-positive cells", "setting": "[2]", "value": 100, "unit": "%"}
    ]},
    {"smiles": "Nc1nc2[nH]cnc2c(=S)[nH]1", "note": "[Thioguanine]", "values": [
      {"measurement": "percent Bodipy-positive cells", "setting": "[2]", "value": "21.6 ± 5.9", "unit": "%"},
      {"measurement": "percent Bodipy-positive cells", "setting": "library stock concentration: 12 mM", "value": "8.62 ± 0.67", "unit": "%"}
    ]},
    {"smiles": "CC(C)c1cc2c(c(O)c1O)[C@@]13CCCC(C)(C)[C@@H]1C[C@@H]2OC3=O", "note": "[Carnosol]", "values": [
      {"measurement": "percent Bodipy-positive cells", "setting": "[5]", "value": "11.8 ± 10", "unit": "%"}
    ]},
    {"smiles": "O=C1c2c(O)cccc2C([C@@H]2O[C@H](CO)[C@@H](O)[C@H](O)[C@H]2O)c2cc(CO)cc(O)c21", "note": "(stereo partly specified) [Aloin]", "values": [
      {"measurement": "percent Bodipy-positive cells", "setting": "[3]", "value": "8.22 ± 0.75", "unit": "%"}
    ]},
    {"smiles": "NC(=S)NCCC[C@H](N)C(=O)O", "note": "[L-Thiocitrulline (hydrochloride)]", "values": [
      {"measurement": "percent Bodipy-positive cells", "setting": "[5]", "value": "12.4 ± 0.54", "unit": "%"}
    ]},
    {"smiles": "NC(=S)NCCC[C@H](N)C(=O)O", "note": "[Thiocitrulline [L-Thiocitrulline]]", "values": [
      {"measurement": "percent Bodipy-positive cells", "setting": "library stock concentration: 26.1 mM", "value": "7.14 ± 1.8", "unit": "%"}
    ]},
    {"smiles": "O=C(Nc1cccc(C(F)(F)F)c1)Nc1cc(S(=O)(=O)NC2CC2)ccc1-c1ccsc1", "values": [
      {"measurement": "percent Bodipy-positive cells", "setting": "[3]", "value": "33.8 ± 1.1", "unit": "%"},
      {"measurement": "percent Bodipy-positive cells", "setting": "[2]", "value": "71.3 ± 0.52", "unit": "%"}
    ]},
    {"smiles": "CC(C(=O)O)c1ccc2c(c1)[nH]c1ccc(Cl)cc12", "note": "(stereo unspecified) [Carprofen]", "values": [
      {"measurement": "percent Bodipy-positive cells", "setting": "[3]", "value": "8.26 ± 2.3", "unit": "%"},
      {"measurement": "percent Bodipy-positive cells", "setting": "library stock concentration: 7.3 mM", "value": "16.5 ± 5.2", "unit": "%"},
      {"measurement": "percent Bodipy-positive cells", "setting": "[2]", "value": "30.1% and 36.9%"}
    ]},
    {"smiles": "CCCCc1cc2ccccc2c(OCCN(C)C)n1", "note": "[Dimethisoquin hydrochloride]", "values": [
      {"measurement": "percent Bodipy-positive cells", "value": "75.7 ± 4.2", "unit": "%"}
    ]},
    {"smiles": "CO/N=C(\\C(=O)N[C@@H]1C(=O)N2C(C(=O)O)=C(CSc3nnnn3C)CS[C@H]12)c1csc(N)n1", "values": [
      {"measurement": "percent Bodipy-positive cells", "setting": "[2]", "value": "30.3 ± 6", "unit": "%"}
    ]}
  ]
}
